These results are taken from PubChem BioAssay AID1347423 (Functional Genomics Laboratory (NCATS/FGL), 2020).

The campaign covered roughly 52,000 sequences. About 210 (0.4%) were called active.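 How the source made its calls: active means gene whose silencing raises cell survival under the drug, median off-target-corrected z-score across its silencing RNAs 2 or more; inactive means the rest.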 This is one part of the list.

The assay is described as follows: Resistance to Poly (ADP-Ribose) Polymerase inhibitor: Gene Identification via Genome-wide siRNA Screen. The settings on record: mouse BRCA2 R2336H ES cells, olaparib, CellTiter-Glo viability; active compounds read high. An outline of the steps: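 Mouse BRCA2 R2336H ES cells were reverse-transfected with siRNA (20 nM final), treated at 48 h with 500 nM olaparib, and read by CellTiter-Glo after 72 h. Scores: MAD-based z per siRNA, median per gene, seed off-target correction.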
For orientation: In ATP-based viability assays light output follows the ATP content of the culture.
For the sequence “GCUGAUGCUCUUAAGCUAUTT against 4930563C04Rik”, the z-score was inactive: -1.11.

As for GGAAUGAGUUUCACAGUUUTT against Fech, the z-score was inactive: -1.3. With CCAGUCAGUCAAUUAGACUTT against Pja1 the figure was inactive: 0.445; with GGACUCCACUCCAAAUACATT against Tnfsf8, inactive: -0.133. The result for GGAAGUUCAACACCUCCAGTT against BC023296 reads inactive: -0.673; that for “GCCUUUGUAGGUUCAAGUGTT against 2310001H12Rik”, inactive: 1.78. Take GGCUUACAAUGUGAUUUACTT against Cd7: the z-score was inactive: 1.71.

As for “GGGACCACUCCUUCAUCACTT against A630001G21Rik”, the z-score was inactive: -0.163. With GCCUCACUUUGCCAUGCAUTT against Pou4f1, the z-score is inactive: -0.33. In the case of “GGAAUAUGGAAAGACCUUUTT against 6330581L23Rik”, the z-score is inactive: -0.228. GGUAAUGAAGGAACUGGAUTT against S100a1: the z-score was inactive: 0.603. Consider GGGUUUUUACAUUCAGAAGTT against Trib2, for which the z-score was inactive: 0.293.

With “CCAAAGCUAAAACGGGUGGTT against 2700055K07Rik”, the z-score was inactive: -1.32.

For the sequence CCUCACCGAGUGGUUUAGCTT against BC034204, the z-score is inactive: -0.879. With GGGUGACAGGUUGAUCUCATT against Tcn2 the figure was inactive: -1.86; with CGCUAUGAAACCUCACUAATT against E2f1, inactive: 0.197; with GUACUGAUACUAGGCUCCUTT against Olfr1387, inactive: -0.701. With GGUUCAUAAAGACAAACCUTT against V1re13 the figure was inactive: 0.0117. With CGAGCAGAGUUUUUGAAUATT against Cald1 the figure was inactive: 0.134. As to “GCACCUGAGCUUUCGAAUATT against 1810037C20Rik”, the z-score is inactive: 0.135. Consider GGGAUACUCCAGACAAGGUTT against Dub2a, for which the z-score is inactive: 1.11.

Consider GCAAAUUAAGCACUGUAAGTT against BC042698, for which the z-score is inactive: -0.341. For the sequence GCUGUUAGCCUUAAAGUCATT against Hibch, the z-score was inactive: 1.06. The result for GUCCUAGAGGAUCUGGAUGTT against V1rh10 reads inactive: -1.19; that for GCAGUAACCGUGACCAGAUTT against Slc35a5, inactive: -1.08; that for GCAGUGAUCCAUGAGCCUATT against Eif5a, inactive: -0.0804. Take GCAAUUAGUCCCUAUUUACTT against Vps41: the z-score was inactive: 0.633.

Consider CCUUGUACACGGAUUGAAUTT against Itga6, for which the z-score was active: 2.44. Consider “GCAUCUACAAAUGUUUCAGTT against D730019B10Rik”, for which the z-score was inactive: 0.543.
